Test: EBDC screen of banana flesh
Settings: for EBDC content in banana flesh: as CS2, Zineb equivalent, MQL = 0.05 ppm; for EBDC Screen result in banana flesh: measured as CS2, Zineb equivalent, MDL = 0.03 ppm

For ethylenebisdithiocarbamates [EBDC], the “EBDC content in banana flesh” value (sample Banana #1 (regular)) was “MQL)”, the “EBDC Screen result in banana flesh” value (sample Banana #1 (regular)) was “Detected” and the “EBDC content in banana flesh” value (sample Banana #2 (regular)) was “MQL)”. The “EBDC Screen result in banana flesh” value (sample Banana #2 (regular)) was “Detected”, the “EBDC Screen result in banana flesh” value (sample Banana #3 (regular)) was “Not detected” and the “EBDC Screen result in banana flesh” value (sample Banana (organic #1)) was “Not detected”. For the same substance, the “EBDC Screen result in banana flesh” value (sample Banana (organic #2)) was “Not detected” and the “EBDC Screen result in banana flesh” value (sample Banana (organic #3)) was “Not detected”.
